US20250066380A1, “NOVEL FURANO-NAPHTHOQUINONE AND NOVEL PYRAZINONE COMPOUNDS FROM AMYCOLATOPSIS AND ACTIVITIES THEREOF” (COUNCIL OF SCIENTIFIC AND INDUSTRIAL RESEARCH (AN INDIAN …, priority 2022, published 2025)
Converted amounts (≈) assume the structure as drawn.

Tested on: Escherichia coli ATCC 8739
Test: MIC, CLSI broth microdilution
Type: cell-based
Details: Mueller Hinton broth, 18 hours at 37° C.; highest concentration 128 μg/ml
Method: The MICs of the purified compounds were done according to CLSI guidelines using Mueller Hinton broth (Hi media) against panel of six Gram positive bacteria S.aureus, S.epidermidis, B.cereus, B.subtilis, M.luteus and L.monocytogenes, two Gram negative bacteria E.coli and P.aeruginosa, and four MRSA (Methicillin resistant S.aureus) clinical strain. The stock solution of compounds were made at 10 mg/ml in DMSO. The test compounds (highest concentration 128 μg/ml) were serially diluted in 50 μl of Mueller Hinton broth and 50 μl of bacterial suspension were added to reach the final desired cell density of 5×10^5 CFU ml^−1 in each well of 96 well microtiter plate except the media control. The medium, untreated culture, DMSO, ampicillin and kanamycin were used as controls. […] The MICs were defined as the lowest concentration that inhibited visible growth of bacteria.

For CC1(C)S[C@@H]2[C@H](NC(=O)[C@H](N)c3ccccc3)C(=O)N2[C@H]1C(=O)O [Ampicilli, ampicillin, reference compound], the MIC was 2 µg/mL (≈ 5.72 µM).
